Measurements from paper PMC3520985.
These are yes or no findings as the source states them, for the method shown. Binding seen in cells or lysates may run through a third protein. Some results given as binding are weak or reduced against the parent protein; the word gives no strength.

The chains behind the UniProt entries cited, without tags or fusion partners.
UniProt Q14166: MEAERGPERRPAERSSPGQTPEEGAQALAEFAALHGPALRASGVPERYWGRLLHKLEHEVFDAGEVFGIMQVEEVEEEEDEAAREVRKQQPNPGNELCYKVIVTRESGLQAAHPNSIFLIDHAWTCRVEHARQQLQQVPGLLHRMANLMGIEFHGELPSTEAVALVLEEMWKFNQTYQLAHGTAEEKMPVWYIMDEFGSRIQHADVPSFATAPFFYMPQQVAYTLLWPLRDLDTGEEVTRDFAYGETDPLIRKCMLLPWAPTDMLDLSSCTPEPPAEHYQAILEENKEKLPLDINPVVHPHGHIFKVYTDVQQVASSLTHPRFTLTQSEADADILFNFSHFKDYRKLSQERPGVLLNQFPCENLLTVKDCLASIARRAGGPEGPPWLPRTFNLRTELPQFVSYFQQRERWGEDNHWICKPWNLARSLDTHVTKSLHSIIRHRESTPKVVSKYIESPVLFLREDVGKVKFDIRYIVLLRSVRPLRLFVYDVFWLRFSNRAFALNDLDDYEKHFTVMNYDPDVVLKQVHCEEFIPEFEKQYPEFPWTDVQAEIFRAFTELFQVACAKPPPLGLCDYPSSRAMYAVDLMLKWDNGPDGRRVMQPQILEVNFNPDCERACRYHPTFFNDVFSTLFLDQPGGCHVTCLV
UniProt Q13185: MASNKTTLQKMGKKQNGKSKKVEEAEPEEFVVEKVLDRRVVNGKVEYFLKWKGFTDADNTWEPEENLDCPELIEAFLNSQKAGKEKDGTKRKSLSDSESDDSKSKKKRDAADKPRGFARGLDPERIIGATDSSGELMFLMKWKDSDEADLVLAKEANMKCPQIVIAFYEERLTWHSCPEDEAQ

Molecular target: Flag-hTTLL12 (human tubulin tyrosine ligase like 12, Flag-tagged) (human) (UniProt Q14166)
Assay: co-IP; nuclear extracts of hTTLL12 clones (Nuclear Complex Co-IP Kit, Active Motif); IP of M2-Flagged hTTLL12, Western blot; control IP in the presence of 500 µg M2 (Flag) peptide

binding: binds
Substance: HP1γ (from UniProt Q13185 1-183)
